Reference: PubChem BioAssay AID2685 (National Center for Advancing Translational Sciences (NCATS), 2010)
Out of some 320,000 compounds screened, about 2,100 (0.66%) were called active. Inconclusive means that the source gave no clear call. Such entries were picked first, then a sample of the others. Calls come from the whole dose curve; as a rule, active = well fitted inhibition curve with a large enough effect in the signal ratio, with a control signal flat (not every such curve was filed as active); inconclusive = small, poorly fitted or top-dose-only effect, or effect the other way, or a change in a side signal; inactive = flat fitted curve, though single readings scatter; the % refers to the signal ratio. Where the call is inconclusive, the potency comes from a doubtful curve fit.

experiment: qHTS Assay for Lipid Storage Modulators in Drosophila S3 Cells; details: BODIPY lipid droplet fluorescence, 18-24 h, cells fed with added oleic acid; lipid storage change, negative = inhibition: at 46.1 µM (top of the series) unless noted
Outline: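 Laser-scanning cytometry quantifies lipid droplet accumulation (500–530 nm total intensity; droplet/cell object ratio) in oleic acid-fed (400 uM added) Drosophila S3 cells treated with a concentration series. 20 uM Triacsin C defined 100% inhibition.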
% is set by controls: 0 for no effect and ±100 for the full control effect; potency is the fitted concentration of half-maximal effect.

| Compound | Potency | lipid storage change, negative = inhibition | outcome |
| --- | --- | --- | --- |
| COc1ccc(OCCC(=O)N2CCCCC2)cc1 | inconclusive: 18.4 µM [activator, single point] | – | – |
| CCOc1ccc(-c2nnc(-c3ccco3)o2)cc1OCC | – | inconclusive: 47.2% | – |
| O=C(CN(Cc1ccccc1)S(=O)(=O)c1ccc(F)cc1)NCc1ccccn1 | – | inconclusive: 22.4% | – |
| O=C(Nc1cccc2ncccc12)C12CC3CC(CC(C3)C1)C2 | – | inconclusive: -5.29% | – |
| CN(CCc1ccccn1)C(=O)CCC1CCCN(C(=O)c2c3c(nn2C)CCCC3)C1 (stereo unspecified) | – | inconclusive: -17.6% | – |
| COc1ccc(C2=NOC(C(=O)NCC(C)C)C2)cc1 (stereo unspecified) | – | inconclusive: 20.6% | – |
| Cc1nn(CCC(=O)N2CCN(S(=O)(=O)c3ccc(Cl)cc3)CC2)c(C)c1C | – | inconclusive: 105% | – |
| COCCn1nnnc1C(c1cccc(OC)c1OC)N1CCN(C(=O)c2ccco2)CC1 (stereo unspecified) | – | inconclusive: 42.4% | – |
| O=C(O)C1=CC(=C(c2ccc(O)c(C(=O)O)c2)c2ccc(O)c(C(=O)O)c2)C=CC1=O | inconclusive: 6.51 µM [activator, partial curve, poor fit] | – | – |
| c1ccc2c(N3CCOCC3)c3c(nc2c1)CCC3 | – | inconclusive: 28% | – |
| COc1ccc(Cl)cc1NC(=O)CCCC(=O)c1ccccc1 | inconclusive: 14.6 µM [cytotoxic, partial curve] | – | – |
| CC1CC(C)CN(C(=O)COC(=O)c2nn(C)c(=O)c3ccccc23)C1 (stereo unspecified) | – | inactive: 29.3% | – |
| O=C(c1cccs1)N1CCN(c2ncc(C(F)(F)F)cc2Cl)CC1 | – | inconclusive: -85% | – |
| CC(C)c1ccc(-c2nnn(Cc3nc4ccccc4s3)n2)cc1 | inconclusive: 0.082 µM [falling, full curve, poor fit] | – | – |
| COc1ccc(C(=O)CNc2cccc(F)c2)cc1 | inconclusive: 0.517 µM [falling, partial curve, poor fit] | – | – |
| COc1ccc(C/C(N)=N/OC(C)=O)cc1OC | inconclusive: 0.291 µM [falling, full curve, poor fit] | – | – |
| Clc1ccc(-n2ncc3c(N4CCCCCC4)ncnc32)cc1 | – | inconclusive: 25% | – |
| CCCN(CCC)CCNC(=O)CCC(=O)Nc1ccc2nc(N3CCOCC3)cc(C)c2c1 | inconclusive: 0.366 µM [activator, full curve] | – | – |
| C/C(=N\NC(=O)C(N)=O)c1cccc(C(F)(F)F)c1 | – | inconclusive: 89.8% | – |
| CCc1ccc(-c2nnn(CCC#N)n2)cc1 | – | inconclusive: 15.1% | – |
| COc1ccc(S(=O)(=O)N2CCOCC2)cc1NC(=O)c1ccc(=O)[nH]c1 | – | inconclusive | – |
| CC1CCCCN1Cc1c(O)ccc2c(=O)c(-c3ccccc3)coc12 (stereo unspecified) | – | inconclusive: 14.9% | – |
| COc1ccc(-c2[nH]ncc2CN2CCCN(c3ccccc3)CC2)c(F)c1 | – | inconclusive: -3.3% | – |
| CC(C)C(NC(=O)C12CC3CC(CC(C3)C1)C2)C(=O)NC1=NCCS1 (stereo unspecified) | inconclusive: 2.06 µM [activator, partial curve] | – | – |
| N#Cc1ccc(OCC(=O)OCC(=O)c2ccc[nH]2)cc1 | – | inconclusive: 35.8% | – |
| O=C(OCC(=O)N1CCOCC1)c1ccc(Cl)cc1[N+](=O)[O-] | inconclusive: 25.9 µM [activator, single point] | – | – |

| Compound | Potency | lipid storage change, negative = inhibition | outcome |
| --- | --- | --- | --- |
| CC1=C(C(=O)Nc2ccccc2)C(c2ccc(C)o2)n2ncnc2N1 (stereo unspecified) | inconclusive: 0.92 µM [falling, partial curve, poor fit] | – | – |
| O=c1[nH]c2ccccc2nc1/C=C(\O)C(F)F | – | inactive: 9.85% | – |
| Cc1nccn1CC(O)COc1ccccc1 (stereo unspecified) | – | inconclusive: 7.77% | – |
| CN([C@@H](Cc1ccc(OS(=O)(=O)c2cccc3cnccc23)cc1)C(=O)N1CCN(c2ccccc2)CC1)S(=O)(=O)c1cccc2cnccc12 | inconclusive: 2.59 µM [activator, full curve] | – | – |
| CCn1c(C)c(C)c2cc(C(=O)NCCN3CCOCC3)ccc21 | – | inactive: 26.7% | – |
| COc1ccc(NC(=O)CN(C)C(=O)CCCc2nc3ccccc3c(=O)[nH]2)cc1 | – | inconclusive: 9.92% | – |
| C1CC1Cc1noc(CN2CCN(C3C4CC5CC(C4)CC3C5)CC2)n1 (stereo unspecified) | – | inconclusive: -0.186% | – |
| Cc1cccc(NC(=O)NC(C)C(c2ccccc2)N2CCN(C)CC2)c1 (stereo unspecified) | – | inactive: 4.89% | – |
| COc1ccc(Cc2nnc(SCC(=O)NC(C)c3ccccc3)o2)cc1 (stereo unspecified) | inconclusive: 0.164 µM [falling, full curve, poor fit] | – | – |
| COC(=O)c1c(O)c2c([nH]c1=O)CCCC2 | inconclusive: 6.51 µM [cytotoxic, full curve, poor fit] | – | – |
| COc1ccc2[nH]c(C(=O)O)c(NS(=O)(=O)c3ccc(C)cc3C)c2c1 | – | inconclusive: 15.1% | – |
| COCC(=O)N1CCc2ccc(NC(=O)c3ccccc3Cl)cc2C1 | – | inconclusive: 11% | – |
| CN(c1ccccc1)S(=O)(=O)c1ccc(C(=O)Nc2ncccc2O)cc1 | – | inconclusive: 38.8% | – |
| Cc1ccc(C(=O)CSc2n[nH]c(-c3ccco3)n2)cc1C | – | inconclusive: -9.52% | – |
| CN(C)C(=S)NC(=NCc1ccc([N+](=O)[O-])cc1)c1ccccc1 | – | inconclusive: -26.6% | – |
| O=C(CCNS(=O)(=O)c1ccc(Br)s1)NCc1ccccc1 | – | inconclusive: 7.16% | – |
| CCOc1ccc(C(=O)Nc2nnc(NC(=S)Nc3ccccc3)s2)cc1 | inconclusive: 0.092 µM [falling, partial curve, poor fit] | – | – |
| Cc1ccc2[nH]c(CNC(=O)c3ccc(F)cc3)cc2c1 | inconclusive: 0.291 µM [activator, partial curve, poor fit] | – | – |
| CCCc1cc(=O)[nH]c(SCc2cc(C(=O)OC)c(C)o2)n1 | – | inconclusive: 11.3% | – |
| CCc1cc2c(=O)n(CC(C)C)cnc2s1 | – | inconclusive: -1.78% | – |
| CCOC(=O)C1=C(COC(=O)[C@H](C)NS(=O)(=O)c2ccc(NC(C)=O)cc2)NC(=O)NC1C (stereo partly specified) | – | inconclusive: 0.423% | – |
| O=C(C[n+]1ccc(-c2nnc3n2CCCCC3)cc1)c1ccc(Cl)cc1 | – | inconclusive: -8.54% | – |
| O=C(NCc1nnc(SCc2ccccc2)n1-c1ccccc1)C12CC3CC(CC(C3)C1)C2 | inconclusive: 29.1 µM [falling, single point] | – | – |
| CCOc1cc(CNCCO)cc(Br)c1OCc1cccs1 | – | inconclusive: -13.1% | – |
| COc1cc(C(=O)NCC(=O)NNC(=O)C2COc3ccccc3O2)cc(OC)c1OC (stereo unspecified) | inconclusive: 14.6 µM [falling, partial curve, poor fit] | – | – |
| CCC(C)NC(=O)CN(c1ccc(Cl)c(Cl)c1)S(C)(=O)=O (stereo unspecified) | – | inconclusive: -26.3% | – |

Single values from the results shown.
Entry of Cc1cccc(NC(=O)NC(C)C(c2ccccc2)N2CCN(C)CC2)c1 (stereo unspecified) under lipid storage change, negative = inhibition: inactive: 4.89%
Entry of CCCc1cc(=O)[nH]c(SCc2cc(C(=O)OC)c(C)o2)n1 under lipid storage change, negative = inhibition: inconclusive: 11.3%
Entry of COc1ccc2[nH]c(C(=O)O)c(NS(=O)(=O)c3ccc(C)cc3C)c2c1 under lipid storage change, negative = inhibition: inconclusive: 15.1%
Entry of CCc1cc2c(=O)n(CC(C)C)cnc2s1 under lipid storage change, negative = inhibition: inconclusive: -1.78%
Entry of CN(C)C(=S)NC(=NCc1ccc([N+](=O)[O-])cc1)c1ccccc1 under lipid storage change, negative = inhibition: inconclusive: -26.6%
Entry of Cc1nccn1CC(O)COc1ccccc1 (stereo unspecified) under lipid storage change, negative = inhibition: inconclusive: 7.77%

Carrying on:

| Compound | Potency | lipid storage change, negative = inhibition | outcome |
| --- | --- | --- | --- |
| CCCC(=O)Nc1cc(=O)[nH]c2ncnn12 | – | inconclusive: -118% | – |
| Cc1cc(C(=O)OCC(=O)Nc2c(F)cccc2F)c(C)n1-c1ccccc1 | – | inconclusive: -39% [cytotoxic] [at 0.369 µM] | – |
| COC(=O)c1ccc(C)c(NC(=O)C2COc3ccccc3O2)c1 (stereo unspecified) | inconclusive: 4.11 µM [activator, partial curve] | – | – |
| Cc1cc2c(c(=O)n1CCCn1ccnc1)C(c1ccco1)C(C#N)=C(N)O2 (stereo unspecified) | – | inconclusive: 15.4% | – |
| Cc1cn(C2CC3OCC3O2)c(=O)[nH]c1=O (stereo unspecified) | inconclusive: 16.4 µM [falling, single point] | – | – |
| COc1ccc(CC(=O)Nc2ccc(C(=O)Nc3nccs3)cc2)cc1OC | – | inconclusive: 38.3% | – |
| Cc1ccc(C)c(S(=O)(=O)N2CCCOC2CNC(=O)C(=O)NCCN2CCOCC2)c1 (stereo unspecified) | – | inconclusive: 8.77% | – |
| CN(C(=O)c1ccc(COc2ccccc2Br)o1)c1ccccc1 | – | inconclusive: 36.7% | – |
| CCOC(=O)/C=C1\SCC(=O)N1CC(=O)Nc1ccccc1OC(F)F | inconclusive: 0.517 µM [activator, single point] | – | – |
| CC1CC(C)CN(S(=O)(=O)c2ccc3c(c2)C(C)(C)C(=O)N3C)C1 (stereo unspecified) | – | – | inactive [at 46.1 µM] |
| COc1cc(-c2nnc3sc(-c4ccco4)nn23)cc(OC)c1OC | – | inconclusive: -3.79% | – |
| Cc1nc2ccc(S(=O)(=O)Nc3ccc(-c4nc5cccnc5s4)cc3)cc2s1 | inconclusive: 6.51 µM [rising, partial curve] | – | – |
| Cn1c(COc2ccc(Cl)cc2)nnc1SCC(=O)Nc1ccc2c(c1)CCC2 | inconclusive: 29.1 µM [cytotoxic, single point] | – | – |
| Cc1ccc(C2CC(=O)NC(SCc3ccccc3)=C2C#N)o1 (stereo unspecified) | inconclusive: 0.0184 µM [activator, full curve, poor fit] | – | – |
| Cc1cc(C)c(NC(=O)Cn2nnc(C(=O)Nc3ccc(F)cc3F)c2N)c(C)c1 | – | inconclusive: -32.8% | – |
| O=C(COc1ccc(Cl)cc1)NCc1n[nH]c(=O)c2ccccc12 | inconclusive: 18.4 µM [activator, single point] | – | – |
| CN(Cc1ccccc1)C(=O)CC(c1ccccc1)c1cc(Cl)ccc1O (stereo unspecified) | – | inconclusive: -16% | – |
| Cc1ccc(C(=O)CN(CCC(=O)O)S(=O)(=O)c2ccc([N+](=O)[O-])cc2)cc1 | – | inconclusive: 67.1% | – |
| CC(=O)Nc1ccc(S(=O)(=O)Nc2cc(C)cn(Cc3ccc(C)cc3)c2=O)cc1 | – | inconclusive: -52.1% | – |
| CCC1=Nc2cc(C(=O)NCCCOC(C)C)ccc2Sc2ccccc21 | inconclusive: 20.6 µM [activator, single point] | – | – |
| O=C(NNC(=O)c1ccc(SCC2CCCO2)c([N+](=O)[O-])c1)c1ccc(F)cc1 (stereo unspecified) | – | inconclusive: 36.3% | – |
| Cc1cccc(N(C(=O)CCC(=O)Nc2cc(C)on2)C(C(=O)NC2CCCC2)c2cccnc2)c1 (stereo unspecified) | – | inconclusive: -16.7% | – |
| O=C(COC(=O)Cc1ccc(Br)cc1)NCC1CCCCC1 | – | inconclusive: 15.5% | – |
| Cc1ccc(CNC(=O)c2cnccn2)cc1 | inconclusive: 4.11 µM [activator, partial curve] | – | – |
